{"source": "paper PMC8012331", "about": "“Drug-induced hepatic steatosis in absence of severe mitochondrial dysfunction in HepaRG cells: proof of multiple mechanism-based toxicity” (Cell Biology and Toxicology, 2020)", "key": {"[1]": {"assay": "Maximum plasma concentration (Cmax) in patients", "details": "worked out from cited Cmax in patients"}, "[2]": {"details": "read-out: Maximum plasma concentration (Cmax) in patients, ref given per drug; cited from earlier work"}, "[3]": {"test_system": "HepaRG cells", "assay": "Neutral lipids with Nile red in HepaRG cells", "details": "4 days", "procedure": "Briefly, HepaRG cells were seeded in 96-well plates at a density of 2.6 × 10^4 cells/cm^2 and were first incubated in William’s E medium supplemented with 10% FBS (50% FBS from Eurobio and 50% FBS from GE Healthcare), 100 U/mL penicillin, 100 μg/mL streptomycin, 2 mM glutamine, 5 μg/mL insulin, and 50 μM hydrocortisone hemisuccinate. […] During this 1-month period, the culture medium was renewed three times a week. […] HepaRG cells were next cultured in the same FBS/DMSO conditions and incubated for 4 days with each drug at different concentrations. Culture medium was renewed every day and all investigations were performed after 96 h (i.e., 24 h after the fourth treatment). These investigations were mostly performed in 96-well plates except for western blot analysis, for which 6-well plates were used. Experiments were carried out on passages 9 to 16. All drugs (except DPEN), etomoxir, lomitapide, tunicamycin, thapsigargin, and TUDCA were dissolved in DMSO. DPEN was dissolved in water.\nCells were then incubated with PBS containing 0.1 μg/mL Nile red for 30 min and washed once. […] For each well, four pictures were taken at a magnification of × 20 and analyzed with Columbus software (PerkinElmer) for quantification. […] Examples of images used for neutral lipid quantification are shown in Supplementary Fig. 2."}}}
{"smiles": "COC(=O)C1=C(C)NC(C)=C(C(=O)OC)C1c1ccccc1[N+](=O)[O-]", "note": "[NIF, nifedipine]", "values": [{"measurement": "Concentration corresponding to 100xCmax", "setting": "[1]", "result": 72, "unit": "µM"}, {"measurement": "Cmax", "setting": "[2]", "result": "≤ 0.72", "unit": "µM"}, {"measurement": "Accumulation of neutral lipids (steatosis)", "setting": "[3]; concentrations above 100 × Cmax (100 μM NIF, 5000 μM DPEN)", "result": "significant accumulation of neutral lipids"}, {"measurement": "Accumulation of neutral lipids (steatosis)", "setting": "[3]; selected concentrations (ATP loss < 30%, not above 100 × Cmax), vs control", "result": "did not induce steatosis"}]}
